Test results published in paper PMC10558541.
Results are given in words; binding and its absence hold for the method and conditions named. In cells and extracts the contact can be indirect. Some results given as binding are weak or reduced against the parent protein; the word gives no strength.

By UniProt entry, the sequences of proteins in these tests, tags left out. Where a name states a change or a piece, a line headed by the entry shows the natural chain unless it says otherwise.
UniProt P05412: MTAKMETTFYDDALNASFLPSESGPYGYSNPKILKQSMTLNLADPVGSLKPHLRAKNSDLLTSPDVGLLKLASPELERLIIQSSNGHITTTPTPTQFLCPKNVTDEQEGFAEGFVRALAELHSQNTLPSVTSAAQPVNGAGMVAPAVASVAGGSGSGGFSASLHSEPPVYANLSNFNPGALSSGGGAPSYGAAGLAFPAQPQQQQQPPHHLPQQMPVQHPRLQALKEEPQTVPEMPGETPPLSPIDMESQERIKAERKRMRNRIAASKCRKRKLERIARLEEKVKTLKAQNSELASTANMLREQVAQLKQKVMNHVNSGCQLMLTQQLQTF
UniProt Q92793: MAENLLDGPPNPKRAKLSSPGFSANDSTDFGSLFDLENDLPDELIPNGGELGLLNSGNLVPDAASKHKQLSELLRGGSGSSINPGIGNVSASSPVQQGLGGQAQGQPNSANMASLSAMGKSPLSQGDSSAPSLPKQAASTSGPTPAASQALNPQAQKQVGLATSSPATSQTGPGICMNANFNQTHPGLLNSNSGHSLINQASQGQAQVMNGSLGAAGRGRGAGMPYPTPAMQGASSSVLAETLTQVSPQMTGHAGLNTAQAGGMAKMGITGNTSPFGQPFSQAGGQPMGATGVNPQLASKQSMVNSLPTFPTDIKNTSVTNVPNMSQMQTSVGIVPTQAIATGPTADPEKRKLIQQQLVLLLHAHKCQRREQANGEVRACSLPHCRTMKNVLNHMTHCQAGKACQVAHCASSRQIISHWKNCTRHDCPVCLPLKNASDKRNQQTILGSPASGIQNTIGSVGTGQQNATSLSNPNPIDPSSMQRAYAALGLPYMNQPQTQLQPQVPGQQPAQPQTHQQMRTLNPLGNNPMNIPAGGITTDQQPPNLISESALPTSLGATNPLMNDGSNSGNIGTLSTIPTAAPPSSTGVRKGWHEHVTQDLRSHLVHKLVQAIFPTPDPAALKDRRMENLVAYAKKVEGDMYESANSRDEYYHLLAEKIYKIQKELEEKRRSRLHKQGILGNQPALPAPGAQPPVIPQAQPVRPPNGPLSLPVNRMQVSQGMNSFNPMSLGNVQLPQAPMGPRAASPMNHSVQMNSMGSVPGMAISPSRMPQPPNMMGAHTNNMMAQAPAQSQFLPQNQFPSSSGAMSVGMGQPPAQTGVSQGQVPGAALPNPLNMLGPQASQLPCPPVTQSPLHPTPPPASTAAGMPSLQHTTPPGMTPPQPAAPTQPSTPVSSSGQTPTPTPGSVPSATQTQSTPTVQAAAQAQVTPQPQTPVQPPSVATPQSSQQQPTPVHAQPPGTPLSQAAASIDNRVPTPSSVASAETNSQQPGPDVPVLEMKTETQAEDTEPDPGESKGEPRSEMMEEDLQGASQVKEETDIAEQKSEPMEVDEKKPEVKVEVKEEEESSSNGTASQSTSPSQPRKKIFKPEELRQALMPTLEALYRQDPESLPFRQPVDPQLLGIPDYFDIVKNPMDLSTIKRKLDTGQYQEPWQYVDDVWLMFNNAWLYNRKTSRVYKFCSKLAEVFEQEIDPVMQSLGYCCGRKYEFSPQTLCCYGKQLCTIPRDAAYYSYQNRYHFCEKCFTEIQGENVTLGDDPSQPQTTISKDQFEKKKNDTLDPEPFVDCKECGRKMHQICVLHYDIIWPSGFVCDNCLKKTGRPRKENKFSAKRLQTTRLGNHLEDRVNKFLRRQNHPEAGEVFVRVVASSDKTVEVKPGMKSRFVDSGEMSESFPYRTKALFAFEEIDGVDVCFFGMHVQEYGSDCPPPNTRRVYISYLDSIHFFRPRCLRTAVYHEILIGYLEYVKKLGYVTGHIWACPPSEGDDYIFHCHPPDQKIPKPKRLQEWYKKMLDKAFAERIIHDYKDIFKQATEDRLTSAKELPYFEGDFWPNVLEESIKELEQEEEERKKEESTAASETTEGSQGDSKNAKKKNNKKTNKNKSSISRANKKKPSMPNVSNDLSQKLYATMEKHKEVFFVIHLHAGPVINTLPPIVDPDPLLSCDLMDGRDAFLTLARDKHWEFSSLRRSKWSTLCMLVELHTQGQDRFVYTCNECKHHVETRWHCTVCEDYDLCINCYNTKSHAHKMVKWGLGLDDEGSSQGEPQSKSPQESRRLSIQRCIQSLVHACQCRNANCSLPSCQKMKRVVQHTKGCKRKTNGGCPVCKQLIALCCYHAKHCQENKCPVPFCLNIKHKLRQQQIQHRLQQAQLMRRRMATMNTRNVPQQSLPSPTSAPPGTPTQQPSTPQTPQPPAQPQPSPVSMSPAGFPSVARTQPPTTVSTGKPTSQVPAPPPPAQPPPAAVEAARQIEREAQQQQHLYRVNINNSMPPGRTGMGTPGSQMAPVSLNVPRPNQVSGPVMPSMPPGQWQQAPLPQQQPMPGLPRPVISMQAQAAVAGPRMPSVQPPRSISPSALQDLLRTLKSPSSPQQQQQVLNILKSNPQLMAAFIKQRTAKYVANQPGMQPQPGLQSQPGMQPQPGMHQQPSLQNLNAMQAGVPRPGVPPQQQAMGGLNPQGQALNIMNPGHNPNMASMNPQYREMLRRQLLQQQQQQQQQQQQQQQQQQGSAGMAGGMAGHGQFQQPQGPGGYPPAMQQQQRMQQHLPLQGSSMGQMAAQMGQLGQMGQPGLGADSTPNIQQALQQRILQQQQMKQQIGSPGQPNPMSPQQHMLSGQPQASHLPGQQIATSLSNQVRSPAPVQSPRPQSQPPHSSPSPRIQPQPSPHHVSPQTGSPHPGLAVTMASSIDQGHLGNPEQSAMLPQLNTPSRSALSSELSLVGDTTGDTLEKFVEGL

Target: c-Jun (human (endogenous in T47D)) (UniProt P05412)
Experiment: co-IP; T47D cells lysed in IP lysis buffer with protease inhibitor cocktail, without SDS; precipitated with 1 ug c-Jun antibody (ab32137) or IgG at 4 °C overnight, Protein A agarose 2 h at 4 °C; western blot

binding: binds
Substance: CBP (from UniProt Q92793 1-2442)
